Taken from: PubChem BioAssay AID504784 (Drosophila RNAi Screening Center, 2011)
Screen: 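Search for regulators of lipid droplet storage in oleate-fed fly cells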 (primary screen). System: Drosophila Kc167 embryonic cells. Reagent: long dsRNA against Drosophila genes, about 250 ng dsRNA per well. Time to read-out: 4 days. Challenge: cells fed 400 µM oleic acid bound to BSA. Detection: 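Microscope images give a droplet-to-nucleus area ratio, taken as log and converted to a screen-wide B-score; higher values mean greater lipid storage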. Direction: droplet/nuclear area B-score: higher = more stored lipid (overstorage).
In all, the deposit lists about 17,000 reagents; this is a random part of those that have a named target and a result. 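Each column is one replicate's B-score; the combined score over replicates was not deposited, so single values may mislead.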 Names joined by + are all predicted targets of the reagent.

target gene	DRSC id	droplet/nuclear area B-score, replicate 1	droplet/nuclear area B-score, replicate 2	droplet/nuclear area B-score, replicate 3
Ork1 (Open rectifier K[+] channel 1)	DRSC20266	1.62	0.889	0.784
trp (transient receptor potential)	DRSC17088	-0.0457		
CG15601	DRSC19670	-0.483	0.0972	
CG13069	DRSC09952	0.445	0.0727	
xmas	DRSC21306	-0.421	0.364	
xmas	DRSC22178	3.8	-0.0687	
CG30403	DRSC03889	0.018	0.542	-0.293
CG10013	DRSC14175	0.565	0.78	
p120ctn (p120 catenin)	DRSC07753	-1.16	-0.16	
Rbcn-3A (Rabconnectin-3A)	DRSC18314	-1.08	-0.0387	
Dph3 (Diphthamide biosynthesis 3)	DRSC14923	1.24	-1.1	
Dr (Drop)	DRSC17002	7.02	3.74	-1.49
Dr (Drop)	DRSC22708	0.0663	0.207	
CG13920	DRSC08389	-0.167	0.864	
Ir100a (Ionotropic receptor 100a)	DRSC14329	0.964	-0.469	-0.189
Blimp-1	DRSC10496	-0.00516	-1.31	
CG4842	DRSC10453	0.629	0.413	
sro (shroud)	DRSC14469	0.282	-0.279	2.27
Nplp4 (Neuropeptide-like precursor 4)	DRSC00391	-0.00417	-1.09	
Vps25 (Vacuolar protein sorting 25)	DRSC06486	1.79	-0.371	
CG5577	DRSC10519	-0.526	0.396	-1.69
ase (asense)	DRSC18739	0.494	-1.9	
Sr-CII (Scavenger receptor class C, type II)	DRSC07557	0.707	-0.525	
CG16787	DRSC04282	0.103	-0.0892	
Cpr67Fa2 (Cuticular protein 67Fa2)	DRSC10315	0.133	0.653	
CG10752	DRSC09799	0.0443	-0.496	
Nf1 (Neurofibromin 1)	DRSC16758	2.05	0.668	
lncRNA:CR32660 (long non-coding RNA:CR32660)	DRSC22965	-1.2	-0.553	
CG31869	DRSC02582	-1.01	-1.28	
CG31869	DRSC02674	0.869	0.747	
sws (swiss cheese)	DRSC18843	-0.445	0.627	0.0717
speck	DRSC04608	-1.85	-1.97	
Cyp4d20 (Cytochrome P450 4d20)	DRSC08654	-0.894	0.238	
ppk19 (pickpocket 19)	DRSC15321	0.638	-0.166	
RhoGAP92B (Rho GTPase activating protein at 92B)	DRSC14507	-0.454	-0.535	
RhoGAP92B (Rho GTPase activating protein at 92B)	DRSC15637	0.528	-0.174	
CG17010	DRSC02559	0.208	0.516	
bru3 (bruno 3)	DRSC09280	0.524	-0.339	
bru3 (bruno 3)	DRSC09687	-0.0253	-0.478	-0.0403
bru3 (bruno 3)	DRSC09887	1.54	2.81	
bru3 (bruno 3)	DRSC22732	-1.77	-0.771	
CG17075	DRSC00483	-0.722	-0.962	
CG31050	DRSC13883	-0.326	-0.00839	
CG14111	DRSC10114	0.804	0.0692	
Rpn3 (Regulatory particle non-ATPase 3)	DRSC03318	-0.0444	2.25	
Unc-115b + p24-2	DRSC16492	-0.999	11.5	
CG11598	DRSC14331	-1.13	0.513	
AOX3 (Aldehyde oxidase 3)	DRSC15955	-0.0751	-0.174	
ppk14 (pickpocket 14)	DRSC03238	0.0242	-2.74	
CG42788	DRSC15330	0.396	1.81	
CG42788	DRSC16139	-1.18	0.46	
CG42788	DRSC16152	0.0053	-0.602	
nxf4 (nuclear export factor 4)	DRSC12548	2.94	0.0682	
CG9284 (retired record)	DRSC03899	0.00608	1.25	
CG9284 (retired record)	DRSC04536	0.188	0.562	
CG15515	DRSC15054	1.05		
CG11699	DRSC19419	0.582	-0.306	-0.451
Tango4 (Transport and Golgi organization 4)	DRSC19786	0.361	-0.51	1.44
ntc (nutcracker)	DRSC08166	0.394	-0.0857	
CG3505	DRSC15489	2.96	-7.66	
Mdr49 (Multi drug resistance 49)	DRSC07466	0.208	-0.0127	
Jon44E (Jonah 44E)	DRSC07216	-0.861	0.36	
CG6495	DRSC01993	-2.81	1.16	
Apoltp (Apolipoprotein lipid transfer particle)	DRSC02508	0.22	0.341	
CG3640	DRSC04399	3.22	0.0116	
dysf (dysfusion)	DRSC14529	-0.234	-1.4	
dysf (dysfusion)	DRSC14895	0.0214	-0.0796	
dysf (dysfusion)	DRSC14896	-0.689	-0.992	
dysf (dysfusion)	DRSC14897	-0.627	-2.73	
Mbs (Myosin binding subunit)	DRSC09414	-1.27	0.0103	
Mbs (Myosin binding subunit)	DRSC10525	1.92	1.26	-0.683
Mbs (Myosin binding subunit)	DRSC10553	-0.43	-0.855	0.00377
grsm (granny smith)	DRSC14165	0.0232	0.0222	
grsm (granny smith)	DRSC14843	0.0707	-1.31	
Nup37 (Nucleoporin 37kD)	DRSC14419	-1.26	-0.148	
CG31635	DRSC02273	-0.0772	-0.216	
CG31635	DRSC02274	-1.25	0.462	
Gpxl (Glutathione peroxidase-like)	DRSC06538	3.1	0.121	
CG12746	DRSC12218	-2.3	3.52	
CG15308	DRSC17995	-1.36	-1.07	-0.36
CG6324	DRSC19985	1.38	-0.456	
CG6462	DRSC10641	1.55	0.255	
Ugt302K1 (UDP-glycosyltransferase family 302 member K1)	DRSC16086	-1.12	0.0369	

Sorted by “droplet/nuclear area B-score, replicate 1” (ascending): some entries from above
target gene	DRSC id	droplet/nuclear area B-score, replicate 1	droplet/nuclear area B-score, replicate 2	droplet/nuclear area B-score, replicate 3
lncRNA:CR32660 (long non-coding RNA:CR32660)	DRSC22965	-1.2	-0.553	
CG31869	DRSC02582	-1.01	-1.28	
CG5577	DRSC10519	-0.526	0.396	-1.69
Nplp4 (Neuropeptide-like precursor 4)	DRSC00391	-0.00417	-1.09	
CG10752	DRSC09799	0.0443	-0.496	
CG16787	DRSC04282	0.103	-0.0892	
Cpr67Fa2 (Cuticular protein 67Fa2)	DRSC10315	0.133	0.653	
sro (shroud)	DRSC14469	0.282	-0.279	2.27
ase (asense)	DRSC18739	0.494	-1.9	
Sr-CII (Scavenger receptor class C, type II)	DRSC07557	0.707	-0.525	
Vps25 (Vacuolar protein sorting 25)	DRSC06486	1.79	-0.371	
Nf1 (Neurofibromin 1)	DRSC16758	2.05	0.668	
